From EP0758233B1, “PDE IV INHIBITORS FOR TREATING MULTIPLE SCLEROSIS” (SCHERING AKTIENGESELLSCHAFT, priority 1994, dated 1995)
At least one structure is not confirmed: it was looked up by name or label, or the drawing left a doubt.

Legend:
[1] = tested on: Experimental Allergic Encephalomyelitis (EAE); assay: Prevention of Experimental Allergic Encephalomyelitis (EAE) in immunized marmosets; assay type: in vivo, Callithrix jacchus (common marmoset); settings: 8 week interval of observation
[2] = tested on: human MBP-specific T-cell lines (TCL); assay: TNF production in vitro by human MBP-specific T-cell lines from MS patients; assay type: cell-based; settings: alone and in combination
[3] = tested on: encephalitogenic CD4+ MBP-specific rat TCL (L1402); assay: TNF/LT production by rat MBP-specific T-cell line, cytotoxicity bioassay; assay type: cell-based
From the text: To assess the ability of rolipram alone or in various combinations as described to modify autoimmune processes, we investigated its influence on TNF production in vitro by MBP-specific T-cell lines from MS patients and Lewis rats. MBP is a major candidate antigen in MS, and T-cell-mediated immunity is of crucial importance in its pathogenesis. Similar to EAE, MBP-specific T-cells in humans are often cytotoxic, of Th1 type secreting interferon (IFN)-gamma and TNF/LT, and recognize epitopes that are also encephalitogenic in EAE.
Similar results were found using an encephalitogenic CD4+ MBP-specific rat TCL (L1402). […] Previous investigations had shown that inhibition of cAMP PDE by rolipram is stereospecific.
TNF and LT may both be produced by autoactive T-cells. CD4+ cells have been reported to be the major source of TFN in autoimmune insulitis of NOD mice. The cytokine bioassay for TNF/LT detection employed here is sensitive to TNF and LT, but is 200 times more sensitive to the former.

[4] = tested on: EAE after active immunization (aEAE); assay: EAE after active immunization (aEAE) in Lewis rats; assay type: in vivo

## COc1ccc(C2CNC(=O)C2)cc1OC1CCCC1 (stereo not drawn) [Rolipram, 4-[(3-cyclopentyloxy)-4-methoxyphenyl)-2-pyrrolidinone]
[1]; Rolipram 10 mg/kg in DMSO every 48 hours from day 5, MRI with Magnevist
  detectable lesions in the brain (MRI): None of the Rolipram treated animals developed detectable lesions
[1]; Rolipram 10 mg/kg in DMSO subcutaneously every 48 hours from day 5 following immunization, three marmosets
  clinical symptoms consistent with EAE: None of the Rolipram treated animals developed symptoms
[2]
  TNF production: selectively inhibited TNF production by human MBP-specific T-cell lines (TCL) in a dose-dependent manner
[3]
  TNF/LT (lymphotoxin) production: inhibited in a dose range comparable to the human lines
[4]; administered from day 7 through day 23, monotherapy or in various combinations
  appearance of neurological symptoms: completely prevented
[4]; clinically manifest EAE, treatment started within 6 hours of the onset of symptoms
  disease progression: did only progress moderately
[4]; clinically manifest EAE, treatment started within 6 hours of the onset of symptoms, one typical experiment
  animals that developed grade 4 (paraplagia): None
[4]; prophylactically treated animals, selected animals
  histological analysis, cellular lesions: only few and mild cellular lesions
[4]; treated after onset of clinical signs, two or three animals
  histological analysis, cellular infiltrates: cellular infiltrates similar to those in the controls
